The results in this text go back to publication PMC8340474.

Sequences of proteins named here, by UniProt entry; tags and fusion partners are left off.
UniProt P46937: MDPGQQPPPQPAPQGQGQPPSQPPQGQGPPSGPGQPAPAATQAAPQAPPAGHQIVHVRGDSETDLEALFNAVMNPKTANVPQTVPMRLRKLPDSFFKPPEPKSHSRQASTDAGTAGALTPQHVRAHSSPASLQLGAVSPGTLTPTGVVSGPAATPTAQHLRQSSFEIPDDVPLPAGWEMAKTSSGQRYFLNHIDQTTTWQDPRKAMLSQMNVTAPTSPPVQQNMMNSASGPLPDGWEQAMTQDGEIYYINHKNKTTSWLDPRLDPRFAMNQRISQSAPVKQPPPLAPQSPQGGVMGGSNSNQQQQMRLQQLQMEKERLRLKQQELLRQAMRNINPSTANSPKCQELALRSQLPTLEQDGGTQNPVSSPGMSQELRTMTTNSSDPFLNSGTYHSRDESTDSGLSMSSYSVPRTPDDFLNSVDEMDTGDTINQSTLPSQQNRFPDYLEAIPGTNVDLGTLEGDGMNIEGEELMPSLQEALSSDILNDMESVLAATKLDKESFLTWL

These are yes or no findings as the source states them, for the method shown. Binding seen in cells or lysates may run through a third protein. Some results given as binding are weak or reduced against the parent protein; the word gives no strength.

This assay deals with Yes-associated protein 1 (YAP1) (human (in human PC cell lines; endogenous or transfected not stated)) (UniProt P46937). Briefly: co-IP; immunoprecipitation from PC cells; which protein was precipitated and which cell line are not told; performed as previously described (ref. 17).

B1: tripartite motif-29 (TRIM29) (protein, UniProt Q14134 1-588)
chain: MEAADASRSNGSSPEARDARSPSGPSGSLENGTKADGKDAKTTNGHGGEAAEGKSLGSALKPGEGRSALFAGNEWRRPIIQFVESGDDKNSNYFSMDSMEGKRSPYAGLQLGAAKKPPVTFAEKGELRKSIFSESRKPTVSIMEPGETRRNSYPRADTGLFSRSKSGSEEVLCDSCIGNKQKAVKSCLVCQASFCELHLKPHLEGAAFRDHQLLEPIRDFEARKCPVHGKTMELFCQTDQTCICYLCMFQEHKNHSTVTVEEAKAEKETELSLQKEQLQLKIIEIEDEAEKWQKEKDRIKSFTTNEKAILEQNFRDLVRDLEKQKEEVRAALEQREQDAVDQVKVIMDALDERAKVLHEDKQTREQLHSISDSVLFLQEFGALMSNYSLPPPLPTYHVLLEGEGLGQSLGNFKDDLLNVCMRHVEKMCKADLSRNFIERNHMENGGDHRYVNNYTNSFGGEWSAPDTMKRYSMYLTPKGGVRTSYQPSSPGRFTKETTQKNFNNLYGTKGNYTSRVWEYSSSIQNSDNDLPVVQGSSSFSLKGYPSLMRSQSPKAQPQTWKSGKQTMLSHYRPFYVNKGNGIGSNEAP
Consider B1, for which the binding result is reported as “binds”.
